These results are taken from publication PMC11109203.

Chains of the proteins cited; added tags and fusions are not shown. Lines headed by an entry give the natural chain unless they say otherwise; changes in a name come on top. A line that says so, or that is headed by a name, gives the form on record, which may keep a tag or linker.
UniProt Q09825: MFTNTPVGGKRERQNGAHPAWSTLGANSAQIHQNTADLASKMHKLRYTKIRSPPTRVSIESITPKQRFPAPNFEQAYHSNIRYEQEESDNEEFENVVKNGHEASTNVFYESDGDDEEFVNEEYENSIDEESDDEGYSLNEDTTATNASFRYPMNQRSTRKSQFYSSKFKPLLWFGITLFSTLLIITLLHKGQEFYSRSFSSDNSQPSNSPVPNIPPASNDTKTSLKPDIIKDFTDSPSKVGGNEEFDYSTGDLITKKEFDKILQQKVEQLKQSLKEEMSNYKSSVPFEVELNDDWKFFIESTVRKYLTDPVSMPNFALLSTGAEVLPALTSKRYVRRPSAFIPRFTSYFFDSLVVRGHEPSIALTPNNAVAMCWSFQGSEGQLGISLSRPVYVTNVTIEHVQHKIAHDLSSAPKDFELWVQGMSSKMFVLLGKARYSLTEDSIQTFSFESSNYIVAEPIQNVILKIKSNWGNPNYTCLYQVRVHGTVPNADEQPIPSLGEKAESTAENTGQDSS
Sad1_(1-169)-5R (Q09825, form named): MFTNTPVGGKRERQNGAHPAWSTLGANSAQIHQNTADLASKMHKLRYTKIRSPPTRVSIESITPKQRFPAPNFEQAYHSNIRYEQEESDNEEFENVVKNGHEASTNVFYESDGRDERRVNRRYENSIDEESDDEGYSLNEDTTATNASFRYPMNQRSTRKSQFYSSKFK

Results are given in words; binding and its absence hold for the method and conditions named. For part of these data: Binding seen in cells or lysates may run through a third protein. Some entries that bind do so weakly or less than the wild type. For part of these data: Where a sequence is shown, tags or fusion partners need not be part of it.

The target in one test is T1, Bqt4-GFP (S. pombe) (UniProt O60158).
T1 sequence: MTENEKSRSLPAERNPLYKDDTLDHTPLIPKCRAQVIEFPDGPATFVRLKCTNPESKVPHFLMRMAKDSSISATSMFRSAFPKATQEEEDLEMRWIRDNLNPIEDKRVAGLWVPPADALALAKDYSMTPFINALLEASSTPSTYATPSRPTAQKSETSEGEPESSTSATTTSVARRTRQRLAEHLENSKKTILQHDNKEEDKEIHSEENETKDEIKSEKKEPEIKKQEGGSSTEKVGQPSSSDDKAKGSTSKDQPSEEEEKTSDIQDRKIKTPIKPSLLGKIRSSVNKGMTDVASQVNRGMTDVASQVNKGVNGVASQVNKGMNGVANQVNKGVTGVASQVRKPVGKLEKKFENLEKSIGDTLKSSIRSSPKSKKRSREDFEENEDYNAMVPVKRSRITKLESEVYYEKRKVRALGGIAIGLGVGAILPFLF
As to the kind of experiment: co-IP; S. pombe cell extracts of cells carrying Sad1-HA with Bqt4-GFP or Cnp20-TAP (controls, Supplementary Fig. 2).

Another test has as its target T2, Cnp20-TAP (S. pombe) (UniProt Q9HGK9).
T2 sequence: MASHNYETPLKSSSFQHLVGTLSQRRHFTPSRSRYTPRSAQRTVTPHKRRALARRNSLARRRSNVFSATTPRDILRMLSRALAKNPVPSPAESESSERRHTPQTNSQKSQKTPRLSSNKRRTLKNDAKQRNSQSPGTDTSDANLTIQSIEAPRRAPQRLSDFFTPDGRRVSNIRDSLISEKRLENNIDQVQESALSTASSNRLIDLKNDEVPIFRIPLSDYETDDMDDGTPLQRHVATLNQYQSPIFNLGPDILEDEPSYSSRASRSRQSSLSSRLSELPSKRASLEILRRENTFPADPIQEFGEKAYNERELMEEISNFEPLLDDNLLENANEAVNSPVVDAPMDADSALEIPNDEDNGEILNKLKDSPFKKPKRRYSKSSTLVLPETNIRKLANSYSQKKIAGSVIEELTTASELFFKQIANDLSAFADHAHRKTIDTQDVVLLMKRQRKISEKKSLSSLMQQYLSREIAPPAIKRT
Described as above.

Test [1] deals with T3, FITC labeled Clr3 (S. pombe) (UniProt P56523).
T3 sequence (chain, FITC label): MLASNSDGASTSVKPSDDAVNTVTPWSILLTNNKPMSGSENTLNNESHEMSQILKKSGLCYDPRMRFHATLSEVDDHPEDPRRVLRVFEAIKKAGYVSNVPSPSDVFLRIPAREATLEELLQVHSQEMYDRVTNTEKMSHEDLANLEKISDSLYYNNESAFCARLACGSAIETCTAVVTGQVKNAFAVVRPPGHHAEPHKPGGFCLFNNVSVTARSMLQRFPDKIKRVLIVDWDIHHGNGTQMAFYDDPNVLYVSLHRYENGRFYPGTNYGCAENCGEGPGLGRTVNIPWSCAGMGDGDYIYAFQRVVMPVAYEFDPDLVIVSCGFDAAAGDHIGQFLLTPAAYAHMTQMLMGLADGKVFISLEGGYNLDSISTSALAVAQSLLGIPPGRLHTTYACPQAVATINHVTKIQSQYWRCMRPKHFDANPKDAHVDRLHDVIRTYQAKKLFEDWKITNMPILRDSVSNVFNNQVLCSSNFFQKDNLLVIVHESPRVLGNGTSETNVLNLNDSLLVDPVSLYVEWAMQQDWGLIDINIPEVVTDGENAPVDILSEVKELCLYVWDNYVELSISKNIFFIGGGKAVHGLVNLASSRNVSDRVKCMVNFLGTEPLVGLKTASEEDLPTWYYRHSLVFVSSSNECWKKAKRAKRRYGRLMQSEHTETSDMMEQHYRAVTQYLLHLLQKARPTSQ
As to the kind of experiment: MST; Monolith NT.115; 25 mM HEPES pH 7.5, 150 mM NaCl, 2 mM DTT; 20 nM FITC labeled Clr3; ligands (500 μM Sad1_(1-169) or 250 μM Sad1_(1-169)-H2AB complex) diluted by 12 gradients; medium MST power, 80% LED; both purified.

For the substance Sad1-HA (from UniProt Q09825 1-514), the binding result is given as “binds” with Bqt4-GFP (S. pombe) and “no binding” with Cnp20-TAP (S. pombe).
Regarding “Sad1_(1-169)-5R (from UniProt Q09825 1-169) (domain or fragment)”, the binding result in test [1] is recorded as “binds”.
